Results are given as percent effect.
How 0% and 100% were set is not recorded. Most values in the screen are low, and negative values occur.
This is an unselected part of the compounds tested.

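Whole-cell assay for inhibitors of Mycobacterium tuberculosis growth, labelled Cornell in the record; the read-out is not stated. The concentration is filed as 10 mM, unlikely as a test dose, so the dose is not known. Higher means stronger inhibition (inferred from two other growth screens of the library). Size under these conditions: about 53,000 compounds, about 900 of them at 50% or above in at least one test.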

Compound	Percent Effect
CN1CCN(CC2(O)CCN(C(=O)CCc3ccccc3F)C2)CC1 (stereo not shown)	17.53
CCCC(NC(=O)c1occc1C)c1nnn[nH]1 (stereo not shown)	-83.42
Cc1ncsc1C(=O)Nc1ccccn1	6.488
COc1cc(CCO)c(OC)c2c1OCO2	-61.57
CC(=O)N1CCOC[C@H](Oc2ccc(C(F)(F)F)cc2)C1	-16.58
COc1ccc(-c2nc(CN3CC(n4cc(C)cn4)C3)no2)cc1	55
Cc1nc(CN2CC3(CCN(c4ncc(F)cn4)C3)CC2=O)cs1.O=C(O)C(F)(F)F (stereo not shown)	10.34
CCc1nnc(CN(CC)C(=O)C2CC(=O)N(C(C)(C)C)C2)o1 (stereo not shown)	-5.053
CCOc1ccnc(N2CCN(Cc3ncccc3C)CC2)n1	14.89
CCS(=O)(=O)c1ccc(N2CCC(NC(=O)CCC(C)C)CC2)cc1	25.29
Cc1c(F)cccc1NC(=O)N(C(C)CS(C)(=O)=O)C1CC1 (stereo not shown)	5.622
CC(C)N[C@@H]1CO[C@H](CNC(=O)c2ccccc2)[C@H]1O	-3.06
OCc1cc2ccccc2nc1NCC1CC1	12.12
Nc1nc2c(c(NCc3nc(-c4ccncc4)n[nH]3)n1)CCCC2	-44.65
Cc1noc(C(C)C)c1C(=O)NCC1CCN(c2ccccc2)C1 (stereo not shown)	-7.106
O=C(O)c1ccc(C2CCCN(C(=O)c3ccc[nH]3)C2)cc1 (stereo not shown)	20.78
O=C(O)C(F)(F)F.[H][C@]12C[C@H](C(=O)NC)N(C)[C@@]1([H])CN(S(=O)(=O)c1ccc(OC)cc1)C2	21.81
CS(=O)(=O)N1CCC(c2nc3ccc(-c4cccc(F)c4)cn3n2)CC1	-0.1002
CCN1CCN(C(=O)c2scnc2C)CC1	-15.28
Cc1cnn(CC2CCCN2C(=O)Cc2n[nH]c3ccccc23)c1 (stereo not shown)	27.69
Cc1cc(C)c(C(=O)N2CCOC(c3cccs3)C2)c(=O)[nH]1 (stereo not shown)	-3.433
O=C(Nc1cccs1)N(CCO)CCOCC(F)(F)F	-19.5
COCC(=O)N1CCC(c2cc(N(C)C)cc(C)n2)CC1	-12.63
c1cnc(N2CCOCC3(CCCN(c4nncs4)C3)C2)cn1 (stereo not shown)	-8.424
Cc1ccc(CN(CC(=O)NCC2CCOC2)c2ccc(F)cc2)o1 (stereo not shown)	104.7
COc1cc(CN2CCCCCC2c2cccs2)cc(OC)c1O (stereo not shown)	38.63
CN(C)c1ccccc1C(=O)N1C[C@@H](CN2CCOCC2)[C@@H](CO)C1	-18.17
Cc1nn2cnnc2c(C)c1CCC(=O)Nc1nnc(C2CC2)s1	23.13
CN1CCOC(CNCc2nc(-c3ccccc3)cs2)C1 (stereo not shown)	-22.51
O=C(O)C(F)(F)F.O=C(O)C(F)(F)F.c1cnc(N2CCOCC3(CCCN(Cc4cccs4)C3)C2)nc1 (stereo not shown)	-11.02
O=C(CCn1c(C(F)F)cc2cccnc21)NC1CCCCC1	6.667
Cc1cc(-c2cccnc2)nc(C2CCCN2S(C)(=O)=O)n1 (stereo not shown)	-17.67
COc1ccc(NS(=O)(=O)CC2=NC(=O)n3cccc3C2=O)cc1Cl	16.86
CNC(=O)[C@@H]1C[C@@H](N)CN1c1nc(N2CCCC2)nc(C)c1C	4.491
O=C(O)C(F)(F)F.[H][C@]12CC[C@@]3(N=C(c4ccccc4)NC3=O)[C@@]1([H])CN(Cc1ccccc1)C2	33.61
OCc1cc(C2CCCN2c2ncccn2)n[nH]1 (stereo not shown)	12.51
Cc1csc(C(C#N)C(=O)Nc2ccccc2)n1 (stereo not shown)	16.25
CC1CCN(C(CNC(=O)CCn2cccn2)c2cccs2)CC1 (stereo not shown)	3.451
O=C(O)C(F)(F)F.O=C(c1cnoc1)N1CCC[C@]2(C[C@@H](OCc3ccccn3)CO2)C1	9.025
Fc1cccc(N2CCCC3(CN(Cc4ccco4)CCO3)C2)c1.O=C(O)C(F)(F)F.O=C(O)C(F)(F)F (stereo not shown)	14.41
Cc1oc(CN(C)C(=O)c2ccc(C(F)(F)F)cc2)cc1C(=O)O	-0.1924
O=C(CCCc1nc(C2CC2)no1)N1CCCC(c2ccn[nH]2)C1 (stereo not shown)	11.83
[H][C@]12CCN(c3ncccn3)[C@@]1([H])CC[C@@H](COCc1ccccn1)O2	-59.6
CN(C)CCOCc1nnc2n1CCN(c1cnccn1)CC2	-50.44
CN(CCC#N)C(=O)CN(C1CC1)C1CCc2ccccc21 (stereo not shown)	-6.568
CCS(=O)(=O)CCCOc1nc(-c2ccccc2Cl)no1	28.76
Cc1nc(CN2CCC3(CC2)CCN(C(=O)c2cscn2)C3)cs1.O=C(O)C(F)(F)F	26.87
FC(F)(F)c1cc(NCCn2ncnn2)nc(-c2cccnc2)n1	-3.119
Cc1nc(CN2CCc3ncnc(C4CC4)c3CC2)cs1.O=C(O)C(F)(F)F	10.06
[H][C@@]12CCCN1C[C@H](CCSC)N(Cc1cn(C)nc1C)C2	1.952
CC(C)C(C(=O)N1CCC2(CC1)CN(C)C(=O)O2)c1ccccc1 (stereo not shown)	21.01
Cc1cc(NC(=O)Cn2ncc(Br)c2C)no1	21.39
CCn1nc2c(cc1=O)CN(Cc1nc(-c3ccsc3)no1)CC2	19.45

Some entries from above, unchanged:

Compound,Percent Effect
Cc1ncsc1C(=O)Nc1ccccn1,6.488
CS(=O)(=O)N1CCC(c2nc3ccc(-c4cccc(F)c4)cn3n2)CC1,-0.1002
O=C(O)C(F)(F)F.[H][C@]12CC[C@@]3(N=C(c4ccccc4)NC3=O)[C@@]1([H])CN(Cc1ccccc1)C2,33.61
CC(C)N[C@@H]1CO[C@H](CNC(=O)c2ccccc2)[C@H]1O,-3.06

Data taken from ChEMBL document CHEMBL3988442, “University of Dundee, Small-Polar-MMV Screening Library” (2021).